These are yes or no findings as the source states them, for the method shown. Some binding calls cover weakened binding; strength is not graded here. Where a sequence is shown, tags or fusion partners need not be part of it.
Target: N-cadherin endogenously expressed on PC12 rat pheochromocytoma cells (rat (endogenous in PC12)) (UniProt Q9Z1Y3)
Test: magnetic tweezer bead adhesion assay; N-cad-Fc-coated superparamagnetic beads settled about 3 min on PC12 cells in cell culture medium (2 mM Ca); electromagnet at 200 mA removes beads not tightly attached; no zinc added; only the binder purified

B1: N-cadherin-Fc fusion protein (mouse N-cadherin extracellular domain fused to Fc-portion of human IgG1) (Fc fusion, UniProt P15116 160-724)
chain: DWVIPPINLPENSRGPFPQELVRIRSDRDKNLSLRYSVTGPGADQPPTGIFIINPISGQLSVTKPLDRELIARFHLRAHAVDINGNQVENPIDIVINVIDMNDNRPEFLHQVWNGSVPEGSKPGTYVMTVTAIDADDPNALNGMLRYRILSQAPSTPSPNMFTINNETGDIITVAAGLDREKVQQYTLIIQATDMEGNPTYGLSNTATAVITVTDVNDNPPEFTAMTFYGEVPENRVDVIVANLTVTDKDQPHTPAWNAAYRISGGDPTGRFAILTDPNSNDGLVTVVKPIDFETNRMFVLTVAAENQVPLAKGIQHPPQSTATVSVTVIDVNENPYFAPNPKIIRQEEGLHAGTMLTTLTAQDPDRYMQQNIRYTKLSDPANWLKIDPVNGQITTIAVLDRESPNVKNNIYNATFLASDNGIPPMSGTGTLQIYLLDINDNAPQVLPQEAETCETPEPNSINITALDYDIDPNAGPFAFDLPLSPVTIKRNWTINRLNGDFAQLNLKIKFLEAGIYEVPIIITDSGNPPKSNISILRVKVCQCDSNGDCTDVDRIVGAGLGTGA
B1 was tested. Which binding did it give?
Its binding is “binds”.

From paper PMC6131644
